The target of assay [1] is flag-tagged steroid receptor coactivator-3 (SRC-3-3×flag), expressed in myeloma cells (human) (UniProt Q9Y6Q9). Description: co-IP; SRC-3-3×flag as bait, IP with M2-flag antibody (anti-FLAG M2 Affinity Gel), NP-40 lysis buffer (50 mM Tris-HCl pH 7.4, 150 mM NaCl), blots of endogenous partners; input 2% lysate.
The target in assay [2] is full-length SRC-3 (FL), expressed in HEK293T cells (human) (UniProt Q9Y6Q9). Nature of the assay: co-IP; SRC-3 and NSD2 constructs (full length or domain deletions) co-expressed in HEK293T cells; IP with M2-flag antibody or HA antibody; NP-40 lysis buffer; input 2% whole lysate.
The target of assay [3] is steroid receptor coactivator-3 (SRC-3), endogenous in myeloma cells (human (endogenous in myeloma cells)) (UniProt Q9Y6Q9). Description: proximity ligation; Duolink In Situ on fixed myeloma cells (wild type and bortezomib-resistant), mouse anti-NSD2 and rabbit anti-SRC-3 antibodies.
For assay [4] the target is unchanged. Nature of the assay: co-IP; endogenous proteins in myeloma cells treated with 25 nM SI-2 for 16 h; IP with anti-SRC-3 antibody; input 2% whole cell lysate.
The target is the same in assay [5]. Description: co-IP; endogenous proteins in myeloma cells without SI-2; IP with anti-SRC-3 antibody and protein G dynabeads, NP-40 lysis buffer; input 2% whole cell lysate.

Chains of the proteins cited; added tags and fusions are not shown.
UniProt Q9Y6Q9: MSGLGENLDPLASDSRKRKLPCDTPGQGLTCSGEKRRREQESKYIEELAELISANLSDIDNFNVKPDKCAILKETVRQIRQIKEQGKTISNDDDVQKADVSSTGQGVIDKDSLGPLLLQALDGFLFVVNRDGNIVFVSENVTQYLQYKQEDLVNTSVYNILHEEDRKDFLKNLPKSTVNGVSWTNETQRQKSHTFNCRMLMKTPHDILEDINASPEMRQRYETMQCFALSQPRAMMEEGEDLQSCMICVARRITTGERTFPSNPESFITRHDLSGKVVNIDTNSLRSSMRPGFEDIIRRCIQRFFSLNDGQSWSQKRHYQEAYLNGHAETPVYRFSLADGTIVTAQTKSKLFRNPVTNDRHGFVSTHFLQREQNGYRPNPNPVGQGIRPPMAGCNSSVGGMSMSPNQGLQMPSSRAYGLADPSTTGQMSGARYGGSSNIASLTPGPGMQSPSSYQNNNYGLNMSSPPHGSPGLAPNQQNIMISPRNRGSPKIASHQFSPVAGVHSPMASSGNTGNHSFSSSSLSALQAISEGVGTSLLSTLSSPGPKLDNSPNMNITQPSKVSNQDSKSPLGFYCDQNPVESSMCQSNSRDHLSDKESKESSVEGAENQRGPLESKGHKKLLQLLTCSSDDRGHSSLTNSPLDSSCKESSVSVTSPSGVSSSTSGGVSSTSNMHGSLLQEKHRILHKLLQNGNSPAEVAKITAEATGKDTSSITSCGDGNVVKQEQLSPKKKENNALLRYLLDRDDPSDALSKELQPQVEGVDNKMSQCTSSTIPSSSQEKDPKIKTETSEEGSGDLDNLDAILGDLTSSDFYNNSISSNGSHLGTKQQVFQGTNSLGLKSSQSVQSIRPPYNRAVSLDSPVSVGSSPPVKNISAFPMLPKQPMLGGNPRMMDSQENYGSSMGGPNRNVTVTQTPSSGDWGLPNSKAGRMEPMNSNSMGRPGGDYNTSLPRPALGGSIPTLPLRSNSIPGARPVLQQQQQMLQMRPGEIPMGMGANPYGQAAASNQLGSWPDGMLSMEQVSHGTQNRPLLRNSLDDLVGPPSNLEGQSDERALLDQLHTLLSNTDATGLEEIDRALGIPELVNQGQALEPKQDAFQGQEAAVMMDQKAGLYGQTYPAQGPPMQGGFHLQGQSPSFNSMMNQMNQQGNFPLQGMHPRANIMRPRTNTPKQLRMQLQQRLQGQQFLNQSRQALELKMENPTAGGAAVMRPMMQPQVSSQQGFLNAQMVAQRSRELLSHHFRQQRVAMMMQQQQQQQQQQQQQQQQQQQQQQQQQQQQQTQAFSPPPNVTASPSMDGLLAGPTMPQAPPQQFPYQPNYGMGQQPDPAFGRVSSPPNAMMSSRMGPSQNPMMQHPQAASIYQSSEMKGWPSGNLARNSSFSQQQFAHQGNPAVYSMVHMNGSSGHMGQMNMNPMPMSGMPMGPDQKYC
UniProt Q99873: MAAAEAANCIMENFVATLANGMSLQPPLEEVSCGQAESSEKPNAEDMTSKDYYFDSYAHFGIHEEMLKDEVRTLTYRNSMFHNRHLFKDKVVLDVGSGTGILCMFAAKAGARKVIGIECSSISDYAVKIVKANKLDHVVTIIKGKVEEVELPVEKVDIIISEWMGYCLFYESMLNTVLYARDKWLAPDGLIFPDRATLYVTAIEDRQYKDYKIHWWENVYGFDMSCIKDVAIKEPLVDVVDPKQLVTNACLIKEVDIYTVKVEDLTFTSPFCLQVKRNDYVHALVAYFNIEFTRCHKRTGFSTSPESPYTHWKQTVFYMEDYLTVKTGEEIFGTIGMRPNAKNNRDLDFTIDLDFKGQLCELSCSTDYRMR
UniProt O96028: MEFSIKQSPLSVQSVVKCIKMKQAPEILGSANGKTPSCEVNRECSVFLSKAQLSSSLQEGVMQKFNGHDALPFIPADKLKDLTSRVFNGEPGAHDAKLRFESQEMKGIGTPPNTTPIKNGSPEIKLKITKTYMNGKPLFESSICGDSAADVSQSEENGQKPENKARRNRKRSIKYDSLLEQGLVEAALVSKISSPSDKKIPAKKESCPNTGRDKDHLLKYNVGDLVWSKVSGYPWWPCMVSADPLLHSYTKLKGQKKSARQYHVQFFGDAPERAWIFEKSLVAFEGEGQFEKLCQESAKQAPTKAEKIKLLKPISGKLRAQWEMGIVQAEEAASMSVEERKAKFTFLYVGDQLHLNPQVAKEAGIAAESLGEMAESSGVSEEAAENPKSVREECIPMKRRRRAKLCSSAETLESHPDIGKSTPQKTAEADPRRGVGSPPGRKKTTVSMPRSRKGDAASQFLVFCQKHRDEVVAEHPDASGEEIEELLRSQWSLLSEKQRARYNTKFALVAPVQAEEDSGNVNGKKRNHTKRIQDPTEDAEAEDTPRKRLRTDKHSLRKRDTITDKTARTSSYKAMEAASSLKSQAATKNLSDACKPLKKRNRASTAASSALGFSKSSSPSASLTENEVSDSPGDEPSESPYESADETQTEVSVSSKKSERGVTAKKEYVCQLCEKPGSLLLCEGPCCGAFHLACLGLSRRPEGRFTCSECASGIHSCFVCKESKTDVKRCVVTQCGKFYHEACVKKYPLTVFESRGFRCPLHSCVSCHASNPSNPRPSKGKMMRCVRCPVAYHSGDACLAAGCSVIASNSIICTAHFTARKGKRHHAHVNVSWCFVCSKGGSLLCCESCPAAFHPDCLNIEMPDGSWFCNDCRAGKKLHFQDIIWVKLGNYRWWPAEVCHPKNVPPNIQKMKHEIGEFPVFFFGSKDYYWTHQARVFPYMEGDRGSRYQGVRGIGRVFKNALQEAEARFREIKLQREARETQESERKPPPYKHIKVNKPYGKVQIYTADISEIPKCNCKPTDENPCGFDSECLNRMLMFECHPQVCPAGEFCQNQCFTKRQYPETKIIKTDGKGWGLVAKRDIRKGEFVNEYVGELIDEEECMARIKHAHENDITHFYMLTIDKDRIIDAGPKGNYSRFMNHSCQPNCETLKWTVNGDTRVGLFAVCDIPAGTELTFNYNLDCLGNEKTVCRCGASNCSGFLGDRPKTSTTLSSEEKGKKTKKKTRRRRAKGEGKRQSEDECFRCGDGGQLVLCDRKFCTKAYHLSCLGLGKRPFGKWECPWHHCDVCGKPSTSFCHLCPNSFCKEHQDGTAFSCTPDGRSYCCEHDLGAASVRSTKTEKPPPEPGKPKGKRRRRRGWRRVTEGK
UniProt Q09472: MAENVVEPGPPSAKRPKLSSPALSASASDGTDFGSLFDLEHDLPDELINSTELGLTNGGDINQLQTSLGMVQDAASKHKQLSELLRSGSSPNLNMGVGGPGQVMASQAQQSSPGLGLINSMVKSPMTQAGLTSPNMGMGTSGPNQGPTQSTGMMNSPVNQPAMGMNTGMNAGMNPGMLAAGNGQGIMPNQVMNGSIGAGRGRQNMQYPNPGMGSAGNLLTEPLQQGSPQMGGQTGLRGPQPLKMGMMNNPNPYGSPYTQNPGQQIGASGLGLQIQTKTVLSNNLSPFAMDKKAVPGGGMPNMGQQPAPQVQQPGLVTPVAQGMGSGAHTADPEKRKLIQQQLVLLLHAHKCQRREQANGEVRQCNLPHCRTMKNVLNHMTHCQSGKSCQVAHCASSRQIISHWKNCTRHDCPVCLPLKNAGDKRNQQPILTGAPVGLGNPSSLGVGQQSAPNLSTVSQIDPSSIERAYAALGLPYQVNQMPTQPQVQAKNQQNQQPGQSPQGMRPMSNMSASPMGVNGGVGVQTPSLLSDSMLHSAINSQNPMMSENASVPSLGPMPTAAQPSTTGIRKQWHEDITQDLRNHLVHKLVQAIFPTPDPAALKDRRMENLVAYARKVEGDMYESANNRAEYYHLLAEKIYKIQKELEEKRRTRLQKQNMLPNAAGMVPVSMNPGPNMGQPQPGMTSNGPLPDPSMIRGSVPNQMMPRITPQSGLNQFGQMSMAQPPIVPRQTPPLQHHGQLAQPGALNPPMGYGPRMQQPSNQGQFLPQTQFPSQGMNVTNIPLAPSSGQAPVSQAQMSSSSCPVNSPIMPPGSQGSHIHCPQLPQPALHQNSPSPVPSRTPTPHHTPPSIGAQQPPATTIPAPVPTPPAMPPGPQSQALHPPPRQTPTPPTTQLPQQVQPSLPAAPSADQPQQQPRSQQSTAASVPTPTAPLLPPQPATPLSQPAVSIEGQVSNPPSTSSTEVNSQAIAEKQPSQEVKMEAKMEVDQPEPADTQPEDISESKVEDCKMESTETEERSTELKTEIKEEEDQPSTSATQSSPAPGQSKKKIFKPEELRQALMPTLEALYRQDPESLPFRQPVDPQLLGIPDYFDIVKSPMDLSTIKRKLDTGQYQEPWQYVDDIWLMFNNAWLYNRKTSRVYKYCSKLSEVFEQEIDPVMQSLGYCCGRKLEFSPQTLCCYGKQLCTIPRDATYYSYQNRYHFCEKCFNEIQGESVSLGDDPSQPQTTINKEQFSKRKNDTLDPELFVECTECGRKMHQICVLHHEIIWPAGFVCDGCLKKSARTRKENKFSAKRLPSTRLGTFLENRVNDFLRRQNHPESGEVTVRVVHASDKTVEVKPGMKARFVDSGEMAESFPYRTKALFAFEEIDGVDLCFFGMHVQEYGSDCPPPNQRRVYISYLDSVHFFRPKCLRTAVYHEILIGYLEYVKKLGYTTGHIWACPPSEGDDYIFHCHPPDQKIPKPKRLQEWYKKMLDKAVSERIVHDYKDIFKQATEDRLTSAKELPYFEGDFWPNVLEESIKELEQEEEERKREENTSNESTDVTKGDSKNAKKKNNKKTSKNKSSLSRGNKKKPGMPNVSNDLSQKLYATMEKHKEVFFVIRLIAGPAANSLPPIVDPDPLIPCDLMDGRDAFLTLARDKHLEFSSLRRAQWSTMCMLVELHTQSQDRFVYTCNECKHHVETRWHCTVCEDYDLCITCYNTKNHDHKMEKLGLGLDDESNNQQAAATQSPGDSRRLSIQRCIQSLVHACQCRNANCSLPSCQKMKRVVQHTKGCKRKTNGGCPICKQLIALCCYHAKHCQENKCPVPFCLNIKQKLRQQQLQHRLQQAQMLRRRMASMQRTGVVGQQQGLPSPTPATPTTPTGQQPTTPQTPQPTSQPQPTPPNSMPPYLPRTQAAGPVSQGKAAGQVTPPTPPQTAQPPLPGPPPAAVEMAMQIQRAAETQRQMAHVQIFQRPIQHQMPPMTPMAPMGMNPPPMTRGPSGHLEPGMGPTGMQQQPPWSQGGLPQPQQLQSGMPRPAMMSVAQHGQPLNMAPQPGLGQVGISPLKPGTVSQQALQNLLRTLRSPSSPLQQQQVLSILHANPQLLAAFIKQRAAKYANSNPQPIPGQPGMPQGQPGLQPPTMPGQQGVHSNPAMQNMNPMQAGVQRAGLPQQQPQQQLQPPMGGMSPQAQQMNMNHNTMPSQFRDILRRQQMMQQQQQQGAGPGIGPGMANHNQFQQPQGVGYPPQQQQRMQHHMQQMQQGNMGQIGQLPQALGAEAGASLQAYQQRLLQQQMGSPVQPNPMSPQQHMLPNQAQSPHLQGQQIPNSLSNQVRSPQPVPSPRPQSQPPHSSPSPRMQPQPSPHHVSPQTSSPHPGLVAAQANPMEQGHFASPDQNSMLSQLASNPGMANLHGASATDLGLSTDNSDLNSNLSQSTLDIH

These are yes or no findings as the source states them, for the method shown. In cells and extracts the contact can be indirect. Some binding calls cover weakened binding; strength is not graded here.

On to “PRMT1, endogenous in myeloma cells (from UniProt Q99873 1-371)”, for which, in assay [1], the binding entry is given as “binds”.

For the substance “full-length NSD2 (FL), expressed in HEK293T cells (from UniProt O96028 1-1365)”, the binding result in assay [2] is on record as “binds”.

Consider “histone-lysine N-methyltransferase NSD2, endogenous in myeloma cells (from UniProt O96028 1-1365)”, for which the binding result is given as “binds” in assay [1], “binds” in assay [3], “binds weakly” in assay [4] and “binds” in assay [5].

As for “p300, endogenous in myeloma cells (from UniProt Q09472 1-2414)”, the binding result in assay [1] is reported as “binds”.

Source of the values: PMC7884723.
